The results in this text go back to PubChem BioAssay AID493014 (National Center for Advancing Translational Sciences (NCATS), 2011).

The experiment in a line: qHTS Assay to Find Inhibitors of Chronic Active B-Cell Receptor Signaling. The conditions noted are these: ABC-DLBCL IkBa-CBG/CBR reporter, luminescence ratio (green luciferase fused to IkBa over red control in TMD8 lymphoma cells), 4 h. In a few lines:
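TMD8 ABC-DLBCL cells carrying doxycycline-inducible green luciferase fused to IkappaBalpha plus unfused red luciferase were exposed to compounds (up to 46 uM) for 4 hrs at 37C. Activity came from the overlap-corrected green/red luminescence ratio.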
(qHTS replaces the single test concentration by a dilution series.)

Setting [1] is: measured here: CBR red luminescence, cell number.
Setting [2] is: measured here: IkBa-CBG green luminescence.

By AC50 is commonly meant the concentration at which the activity in the assay is half-maximal.

Some of the results follow. These are further read-outs of the screen, such as a control signal, another cell line or another target. No call is given for them. Compounds called inactive in the main read-out are mostly missing here. The note in brackets gives the kind of curve behind each potency; many fits are weak.

`Brc1ccc(-c2nc3ccccc3s2)s1`: the concentration at half-maximal activity (AC50) under setting [1] was 3.98 µM [rising, partial curve, poor fit].
For the molecule `CSc1cc(-c2ccc(Cl)cc2)c(C(=O)NN)s1`, under setting [1], the AC50 was 10 µM [rising, partial curve, poor fit].
As for `Cc1[nH]c2ccccc2c1/C=N/Nc1nc2ccccc2[nH]1`, the AC50 runs as follows: under setting [1], 31.6 µM [falling, single point]; under setting [2], 20 µM [falling, single point].
Consider `COc1ccccc1N1C(=O)CC1(C#N)c1ccc(OCc2ccccc2)cc1` (stereo unspecified), for which the half-maximal activity concentration (AC50) under setting [1] was 29.1 µM [falling, single point].
Take `Oc1ccc(-c2nnc(Nc3cccc(O)c3)c3ccccc23)cc1`: the AC50 by setting is: under setting [1], 35.5 µM [falling, single point]; under setting [2], 6.31 µM [falling, partial curve, poor fit].
Consider `O=C(COC(=O)CSc1ccc2ccccc2c1)Nc1ccccc1OC(F)F`, for which the AC50 under setting [1] was 20.6 µM [rising, partial curve, poor fit].
On the same count and under the same terms, to `CCOC(=O)c1sc(N)c(C(=O)OCC)c1COC(=O)C1CC(=O)N(Cc2ccco2)C1` (stereo unspecified) belongs 18.4 µM [rising, single point]; to `COCc1cc(OC)nc(-c2csc(C)n2)n1`, 5.62 µM [rising, single point]; to `CN1CCN(c2ccc(-c3cccc(NC(=O)COc4ccccc4)c3)nn2)CC1`, 20.6 µM [falling, single point].
`CC(=O)c1ccc(OC(=O)CCN2c3ccccc3Sc3ccccc32)cc1`: under setting [1], the concentration at half-maximal activity (AC50) was 20.6 µM [falling, single point].
`COCCSc1ccccc1C(=O)Nc1ccc(Cl)cn1`: the concentration at half-maximal activity (AC50) under setting [1] is 0.731 µM [rising, full curve, poor fit].
Still for that read-out and setting: as for `Cc1ccc(NC(=O)Nc2ccc3c(c2)N(C)C(=O)CS3)cc1C`, the figure is 6.51 µM [rising, single point].
The same measure, in the same setting: as for `Cc1ccc(N(Cc2ccccc2)C(=O)c2cccc(S(=O)(=O)N3CC(C)OC(C)C3)c2)cc1` (stereo unspecified), the figure is 29.1 µM [falling, single point].
The same measure, in the same setting: as for `N#Cc1ccsc1NC(=O)CN1CCN(c2ccccn2)CC1`, the figure is 0.366 µM [rising, full curve, poor fit].
`COc1cc(C(=S)N2CCC(C)CC2)ccc1O`: the concentration at half-maximal activity (AC50) under setting [1] was 25.9 µM [rising, single point].
On the same count and under the same terms, to `COc1ccccc1-c1nc(-c2ccccn2)no1` belongs 8.2 µM [falling, partial curve, poor fit].
Regarding `Cc1nn(C)c(C)c1N1C(=O)c2cccc3c(Br)ccc(c23)C1=O`, the half-maximal activity concentration (AC50) was 5.17 µM [falling, partial curve, poor fit] under setting [1] and 3.66 µM [rising, full curve] under setting [2].
Take `O=S(=O)(NCc1cn2ccccc2n1)c1cccs1`: under setting [1], the AC50 is 3.55 µM [falling, partial curve, poor fit].
Same read-out and setting: as for `O=C(NCCC1=CCCCC1)c1ccc(Cl)cc1`, the figure is 11.2 µM [falling, partial curve, poor fit]; as for `COc1ccc(NC(=O)CCNS(=O)(=O)c2cccc(C(C)=O)c2)cc1S(N)(=O)=O`, 35.5 µM [rising, single point].
Same read-out and setting: as for `O=C(N/N=C/c1ccoc1)c1cc(Br)ccc1O`, the figure is 0.501 µM [falling, full curve]; as for `Fc1ccc(-n2ncc3c(NCCC4=CCCCC4)ncnc32)cc1`, 0.501 µM [rising, full curve]; as for `CCOC(=O)c1ccc(NC(=O)COc2cc3oc(=O)c(CC(C)O)c(C)c3cc2Cl)cc1` (stereo unspecified), 0.0891 µM [rising, full curve, poor fit].
Still for that read-out and setting: as for `COc1cccc(NS(=O)(=O)c2ccc3[nH]cc(C(=O)NCCC(C)C)c(=O)c3c2)c1`, the figure is 35.5 µM [falling, single point].
With `CCCCC(=O)N1CCCC(c2nc3c(nnn3Cc3cc(C)ccc3C)c(=O)[nH]2)C1` (stereo unspecified), the concentration at half-maximal activity (AC50) under setting [1] is 3.98 µM [rising, single point].
Turning to `COc1ccccc1C(=O)COC(=O)c1ccc(-n2cnnn2)cc1`, the AC50 under setting [1] was 7.31 µM [falling, partial curve, poor fit].
`CNC(=O)C(C#N)(Cc1cc(C(C)=O)ccc1OC)Cc1cc(C(C)=O)ccc1OC`: the AC50 under setting [1] is 0.794 µM [rising, full curve, poor fit].
On the same count and under the same terms, to `COCCN(C(=O)Cc1ccc(OC)c(OC)c1)c1nc(-c2cc(OC)ccc2OC)cs1` belongs 17.8 µM [rising, single point]; to `COc1ccc(/C=N/Nc2cc(C)nc3c(C)cccc23)cc1`, 35.5 µM [falling, partial curve, poor fit]; to `CC(SC#N)C(=O)C12CC3CC(CC(C3)C1)C2` (stereo unspecified), 3.55 µM [falling, full curve, poor fit].
Take `O=C(NNC(=O)c1ccc(O)c(Cl)c1)c1cccc(S(=O)(=O)N2CCOCC2)c1`: under setting [1], the concentration at half-maximal activity (AC50) is 29.1 µM [falling, single point].
The same measure, in the same setting: as for `N#C/C(C(=O)N1CCOCC1)=C1\Nc2ccccc2S1`, the figure is 1.46 µM [falling, full curve, poor fit]; as for `CCN1C(=O)C(CC(=O)Nc2ccc(F)cc2)N(Cc2ccco2)C1=S` (stereo unspecified), 25.1 µM [falling, single point].
In the case of `C=CCOc1ccc(C(=O)Nc2ccccc2C(=O)NCc2cccnc2)cc1`, under setting [2], the AC50 is 11.2 µM [falling, partial curve, poor fit].
`O=C(CSc1nnc(NC(=O)c2ccc(F)cc2)s1)NCc1ccco1`: the concentration at half-maximal activity (AC50) under setting [1] is 12.6 µM [falling, partial curve, poor fit].
For `COc1ccc(/C=N/NC(=O)c2[nH]c3ccc(C)cc3c2-c2ccccc2)c(C(=O)O)c1OC`, the concentration at half-maximal activity (AC50) under setting [2] was 7.08 µM [falling, full curve].
`CN(Cc1ccccc1)S(=O)(=O)c1cc2c3c(c1)CCN3C(=O)CC2`: the half-maximal activity concentration (AC50) under setting [1] was 1.3 µM [rising, partial curve].
The same measure, in the same setting: to `CC(=O)Nc1ccc(S(=O)(=O)NCCC(=O)NCC2COc3ccccc3O2)cc1` (stereo unspecified) belongs 10 µM [rising, single point].
On the same count and under the same terms, as for `C/C(=N/NC(=O)CSc1nc2ccccc2n1C)c1ccc(O)cc1`, the figure is 6.31 µM [falling, partial curve]; as for `COc1ccccc1N1CCN(S(=O)(=O)c2ccc(NC(C)=O)cc2)CC1`, 22.4 µM [rising, partial curve, poor fit].
Regarding `C[C@H]1COc2c(C3(N)CC3)c(F)cc3c(=O)c(C(=O)O)cn1c23`, the concentration at half-maximal activity (AC50) under setting [1] was 8.91 µM [falling, partial curve, poor fit].
Still for that read-out and setting: as for `CCOC(=O)c1nn(-c2ccc(Cl)cc2)c2nc(Nc3ccccc3)cc(=O)n12`, the figure is 23.1 µM [rising, single point]; as for `COc1ccc2[nH]cc(C(=O)CCl)c2c1`, 10 µM [falling, partial curve, poor fit]; as for `COc1ccc(-n2cnc3cc([N+](=O)[O-])ccc32)cc1`, 3.55 µM [rising, partial curve, poor fit].
`COc1ccc(C(=O)/C=C(\C)Nc2ccc3c(c2)OCO3)cc1`: the AC50 under setting [1] is 15.8 µM [rising, single point].
With `Cc1ccc(S(=O)(=O)NCCC(=O)NC2CCC(C)CC2)cc1` (stereo unspecified), the AC50 under setting [1] was 6.51 µM [rising, partial curve, poor fit].
With `Cc1sc(NC(=O)c2ccccc2)c(C(c2ccccn2)N2CCN(CCO)CC2)c1C` (stereo unspecified), the AC50 under setting [1] is 1.84 µM [falling, full curve].
For `C/C(N)=C(/C#N)C(=O)COC(=O)CCS(=O)(=O)c1ccccc1`, under setting [1], the AC50 is 0.058 µM [falling, full curve, poor fit].
On the same count and under the same terms, as for `CCOC(=O)c1c(NC(=O)c2ccoc2C)sc(C)c1C`, the figure is 16.4 µM [rising, partial curve]; as for `Cc1ccc(C2=NN3C(C(=O)c4ccccc4)Oc4ccccc4C3C2)cc1` (stereo unspecified), 14.6 µM [falling, partial curve]; as for `COc1ccc(C(=O)C2CCCN(Cc3cn(C)nc3-c3ccccc3)C2)cc1F` (stereo unspecified), 20 µM [falling, single point].
For the molecule `COC(=O)C(NC(=O)CCc1c(C)nc2ncnn2c1C)C(C)C` (stereo unspecified), the half-maximal activity concentration (AC50) under setting [1] is 17.8 µM [falling, single point].
For the molecule `O=C(Nc1ccccc1C(=O)O)c1ccc2c(c1)C(=O)N(c1cccc([N+](=O)[O-])c1)C2=O`, under setting [1], the AC50 is 3.98 µM [falling, full curve, poor fit].
Regarding `S=c1[nH]nc(-c2cc(-c3ccccc3)n[nH]2)n1/N=C/c1c(Cl)cccc1Cl`, under setting [1], the AC50 is 5.01 µM [falling, full curve, poor fit].
For `COc1ccc(/C=N/NC(=O)c2ccccc2OCc2ccccc2)c(OC)c1`, under setting [1], the AC50 was 1.78 µM [falling, full curve, poor fit].
`CCc1cc(C(=O)N2CCN(c3ccccn3)CC2)sc1C`: under setting [1], the AC50 was 3.16 µM [rising, partial curve, poor fit].
`CCCCN1C(=O)/C(=C/C=C2/CC(C)(C)CN2C)SC1=S`: the AC50 under setting [1] is 2.91 µM [rising, single point].
In the case of `COCCNC(=O)Cc1c(C)c2c(cc(C)c3c(C(C)(C)C)coc32)oc1=O`, under setting [2], the concentration at half-maximal activity (AC50) is 35.5 µM [falling, single point].
Regarding `CSc1ccc2c(c1)C(N1CCN(C)CC1)Cc1ccccc1S2` (stereo unspecified), the AC50 runs as follows: under setting [1], 8.91 µM [falling, partial curve]; under setting [2], 35.5 µM [rising, partial curve, poor fit].
For `Cc1ccc(S(=O)(=O)N2[C@@H](c3ccc(C(C)(C)C)cc3)C(C(=O)O)=CC[C@H]2c2cccc(Cl)c2)cc1`, the concentration at half-maximal activity (AC50) under setting [1] is 29.1 µM [falling, single point].
The same measure, in the same setting: to `Cc1ccc(Nc2cc(C)nc3ccc(C)cc23)cc1` belongs 6.31 µM [falling, full curve]; to `Cn1c(=O)c2c(SCC(=O)N3CCCc4ccccc43)nc(CC(C)(C)C)nc2n(C)c1=O`, 2.31 µM [rising, partial curve, poor fit].
